Reference: article doi:10.1101/096271

Chains of the proteins cited; added tags and fusions are not shown.
UniProt P06730: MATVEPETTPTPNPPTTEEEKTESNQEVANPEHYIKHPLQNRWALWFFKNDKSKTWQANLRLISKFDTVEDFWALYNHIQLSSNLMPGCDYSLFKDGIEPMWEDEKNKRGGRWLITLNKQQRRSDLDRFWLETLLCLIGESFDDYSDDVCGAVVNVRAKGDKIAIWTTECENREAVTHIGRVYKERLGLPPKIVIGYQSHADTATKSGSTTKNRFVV

What follows are substances tested against T1, FKBP7 (human (endogenous in IGR-CaP1-Dtx-R, RPE-1 and 22RV1-Dtx-R)) (UniProt Q9Y680) (assay: affinity purification with mass spectrometry).
T1 sequence: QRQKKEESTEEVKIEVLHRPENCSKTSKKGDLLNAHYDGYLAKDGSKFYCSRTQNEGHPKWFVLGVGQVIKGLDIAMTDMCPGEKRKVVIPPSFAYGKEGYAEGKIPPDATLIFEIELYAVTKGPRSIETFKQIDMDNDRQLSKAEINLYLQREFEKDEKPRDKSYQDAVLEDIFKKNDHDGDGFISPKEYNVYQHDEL

Substance | binding
eIF4G | binds
eIF4A | binds
Hsp70 (human (endogenous in IGR-CaP1-Dtx-R)) | binds
eIF4E (from UniProt P06730 1-217) | binds

These are yes or no findings as the source states them, for the method shown. Binding seen in cells or lysates may run through a third protein. These calls come from enrichment with a bait or labelling near it, and not all partners need be listed.
